Assay results taken from US10457662B2, “Substituted amides for treating and preventing cancer” (The Regents of the University of Michigan, priority 2015, dated 2019).

Tested on: MiaPaCa-2 cells
Assay: Gene Set Enrichment Analysis (GSEA) of Bru-seq pre-ranked list

O=C(Nc1cccc2cccnc12)c1cnccn1 [QN523, Pyrazine-2-carboxylic acid quinolin-8-ylamide]
NES AMUNDSON_GAMMA_RADIATION_RESPONSE (downregulated): −2.563
NES BLUM_RESPONSE_TO_SALIRASIB_DN (downregulated): −2.38
NES CROONQUIST_NRAS_SIGNALING_DN (downregulated): −2.497
NES DUTERTRE_ESTRADIOL_RESPONSE_24HR_UP (downregulated): −2.5
NES GOBERT_OLIGODENDROCYTE_DIFFERENTIATION_UP (downregulated): −2.35
NES ISHIDA_E2F_TARGETS (downregulated): −2.462
NES KANG_DOXORUBICIN_RESISTANCE_UP (downregulated): −2.424
NES LEE_EARLY_T_LYMPHOCYTE_UP (downregulated): −2.534
NES MORI_LARGE_PRE_BII_LYMPHOCYTE_UP (downregulated): −2.457
NES PID_PLK1_PATHWAY (downregulated): −2.362
NES WHITEFORD_PEDIATRIC_CANCER_MARKERS (downregulated): −2.472
NES ZHAN_MULTIPLE_MYELOMA_PR_UP (downregulated): −2.583
NES ZHOU_CELL_CYCLE_GENES_IN_IR_RESPONSE_24HR (downregulated): −2.366
NES BILD_HRAS_ONCOGENIC_SIGNATURE (upregulated): 2.691
NES BLUM_RESPONSE_TO_SALIRASIB_UP (upregulated): 2.774
NES BOQUEST_STEM_CELL_CULTURED_VS_FRESH_UP (upregulated): 2.698
NES CONCANNON_APOPTOSIS_BY_EPOXOMICIN_UP (upregulated): 2.563
NES DUTERTRE_ESTRADIOL_RESPONSE_24HR_DN (upregulated): 2.697
NES ELVIDGE_HYPOXIA_BY_DMOG_UP (upregulated): 2.562
NES ELVIDGE_HYPOXIA_UP (upregulated): 2.562
NES GARGALOVIC_RESPONSE_TO_OXIDIZED_PHOSPHOLIPIDS_BLUE_UP (upregulated): 2.641
NES GARGALOVIC_RESPONSE_TO_OXIDIZED_PHOSPHOLIPIDS_TURQUOISE_UP (upregulated): 2.558
NES GROSS_HYPOXIA_VIA_ELK3_DN (upregulated): 2.653
NES HELLER_SILENCED_BY_METHYLATION_DN (upregulated): 2.77
NES KRIGE_RESPONSE_TO_TOSEDOSTAT_24HR_UP (upregulated): 2.68
NES NAGASHIMA_NRG1_SIGNALING_UP (upregulated): 2.718
NES PICCALUGA_ANGIOIMMUNOBLASTIC_LYMPHOMA_DN (upregulated): 2.638
NES PODAR_RESPONSE_TO_ADAPHOSTIN_UP (upregulated): 3.044
NES TIEN_INTESTINE_PROBIOTICS_24HR_DN (upregulated): 2.827
